Results are given in words; binding and its absence hold for the method and conditions named. Some results given as binding are weak or reduced against the parent protein; the word gives no strength.

By UniProt entry, the sequences of proteins in these tests, tags left out. Residues count along the entry.
UniProt O14786, residues 22-923: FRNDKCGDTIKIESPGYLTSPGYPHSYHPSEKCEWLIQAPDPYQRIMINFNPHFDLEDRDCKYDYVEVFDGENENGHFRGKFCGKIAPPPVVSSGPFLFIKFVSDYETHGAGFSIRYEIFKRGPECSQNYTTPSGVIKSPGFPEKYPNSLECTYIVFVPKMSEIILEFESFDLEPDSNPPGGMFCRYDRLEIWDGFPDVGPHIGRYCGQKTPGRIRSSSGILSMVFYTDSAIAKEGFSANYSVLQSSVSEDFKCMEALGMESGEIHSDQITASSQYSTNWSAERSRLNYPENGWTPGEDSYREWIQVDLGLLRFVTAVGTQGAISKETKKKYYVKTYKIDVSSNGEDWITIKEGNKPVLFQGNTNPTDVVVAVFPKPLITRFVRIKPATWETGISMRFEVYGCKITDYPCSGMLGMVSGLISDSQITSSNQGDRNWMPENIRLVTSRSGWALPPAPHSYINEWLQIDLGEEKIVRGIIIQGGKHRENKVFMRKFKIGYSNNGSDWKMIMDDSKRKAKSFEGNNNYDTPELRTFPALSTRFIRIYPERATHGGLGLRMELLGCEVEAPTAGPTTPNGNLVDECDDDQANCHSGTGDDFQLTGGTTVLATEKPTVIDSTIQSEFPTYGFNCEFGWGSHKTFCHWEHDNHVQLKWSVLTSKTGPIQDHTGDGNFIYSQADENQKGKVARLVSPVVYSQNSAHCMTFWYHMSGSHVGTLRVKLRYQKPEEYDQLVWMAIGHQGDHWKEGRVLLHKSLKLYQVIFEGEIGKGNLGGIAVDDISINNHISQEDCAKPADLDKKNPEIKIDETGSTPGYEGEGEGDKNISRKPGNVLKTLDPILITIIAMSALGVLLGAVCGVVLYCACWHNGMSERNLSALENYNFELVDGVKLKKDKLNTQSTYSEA

For experiment [1], the target named is wild-type NRP-1 expressed on transiently transfected M21 melanoma cells (UniProt O14786). In words: phage binding to M21 melanoma cells transiently transfected with NRP-1.
The target is the same in experiment [2]. In words: immunostaining and confocal imaging of M21 cells transiently transfected with NRP-1, 3 hours at 37 C.

B1: T7 phage displaying RPARPAR (SEQ ID NO:2) (peptide)
chain: RPARPAR
notes: also called RPARPAR phage; RPARPAR T7; not shown: T7 bacteriophage major coat protein gp10 (T7-select display system); Limits
Regarding B1, the binding entry in experiment [1] and in experiment [2] was “binds” throughout.

The values above are taken from US20090226372A1 (SANFORD BURNHAM MEDICAL RESEARCH INSTITUTE, published 2009).
